Data published in PubChem BioAssay AID2685 (National Center for Advancing Translational Sciences (NCATS), 2010).
The other results are listed elsewhere or left out. Shown are side measurements of this screen, not its main read-out; they come without a call. The list favours compounds with an active or inconclusive main result. The note in brackets gives the kind of curve behind each potency; many fits are weak.

Experiment: qHTS Assay for Lipid Storage Modulators in Drosophila S3 Cells;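 as to cell number change: cells counted by Cell Tracker Red CMTPX staining in the red channel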
Settings: BODIPY lipid droplet fluorescence, 18-24 h; for cell number change: measured here: cell count max response, cells fed with added oleic acid
Summary of the method: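 Drosophila S3 cells got compounds at several concentrations plus oleic acid (400 uM solution). Laser-scanning cytometry with 488 nm excitation read lipid droplets at 500-530 nm and cells at 575-640 nm. Percent activity was relative to 20 uM Triacsin C.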

[1] = measured here: cell number channel AC50, cells fed with added oleic acid
[2] = measured here: lipid fluorescence (Fed channel) AC50, cells fed with added oleic acid

Row | Compound | cell number change | AC50 [1] | AC50 [2]
1 | Cc1nnc(NC2(C(F)(F)F)C(=O)Nc3c2c(=O)n(C)c(=O)n3C)s1 (configuration not stated) | -124% | 8.2 µM [falling, partial curve] | 29.1 µM [falling, single point]
2 | COc1ccc(CN(C(=O)CN2C(=O)NC3(CCC(C)CC3)C2=O)C(C)Cc2cccs2)cc1 (configuration not stated) | -4.4% | – | 0.92 µM [falling, single point]
3 | C=CCNC(=S)N/N=C/c1ccc(C(F)(F)F)cc1 | -27.9% | 0.82 µM [rising, single point] | 29.1 µM [falling, single point]
4 | CC(C)(C)OC(=O)NCCC(=O)Oc1ccc2ccc(=O)oc2c1 | -10.9% | 0.0259 µM [falling, full curve, poor fit] | 0.0291 µM [falling, full curve]
5 | O=C1C/C(=C\c2c(F)cccc2Cl)N2CCC1CC2 | -24.3% | 0.13 µM [falling, full curve] | 3.66 µM [falling, single point]
6 | O=C(CNC(=S)N(CCCN1CCOCC1)Cc1cccs1)NCc1ccc(Cl)cc1 | – | – | 1.84 µM [falling, full curve, poor fit]
7 | Cc1[nH]nc2c1C(c1ccc3c(c1)OCO3)C(C#N)=C(N)O2 (configuration not stated) | – | 4.61 µM [rising, single point] | 6.51 µM [rising, single point]
8 | CCC(=O)N1CCN=C1SCc1ccccc1Cl | -9.4% | – | –
9 | C=CCn1c(=O)c2c(nc3n2CCCN3CCc2ccc(OC)c(OC)c2)n(C)c1=O | -7.8% | – | –
10 | COc1ccc(C2C(C(=O)c3ccc(C)o3)=C(O)C(=O)N2Cc2cccnc2)cc1 (configuration not stated) | -5.71% | – | 6.51 µM [falling, single point]
11 | CCc1nnc2sc(-c3ccc(NC(=O)c4ccco4)cc3)nn12 | -42.1% | 13 µM [falling, partial curve] | 8.2 µM [falling, partial curve]
12 | Cc1ccc(-c2c[n+](CC(=O)Nc3cc(=O)n(C)c(=O)n3C)c3n2CCC3)cc1 | -2.9% | 5.8 µM [falling, single point] | –
13 | O=C(NCC1CCCO1)c1ccc2c(=O)n(CC3CCCO3)c(=S)[nH]c2c1 (configuration not stated) | 10.4% | – | 6.51 µM [rising, single point]
14 | CCOC(=O)CCSCC(=O)Nc1cc(C)on1 | – | – | 6.51 µM [rising, single point]
15 | Cc1ccc(-c2csc(N3CCC(C(N)=O)CC3)n2)cc1 | 8.02% | 1.16 µM [rising, single point] | –
16 | Cn1c2ccccc2c(=O)c2c(=O)n(Cc3ccccc3)c(-c3ccc(F)cc3)nc21 | 11.8% | – | –

Row | Compound | cell number change | AC50 [1] | AC50 [2]
17 | O=C(CSc1ncn[nH]1)Nc1ccc(Cl)c(Cl)c1 | – | – | 10.3 µM [rising, partial curve]
18 | O=C(OCc1ccc(Br)cc1)c1cccc(-c2nnc(-c3ccccc3)o2)c1 | – | – | 29.1 µM [rising, single point]
19 | COc1ccc(/C=C(\NC(=O)c2cccs2)C(=O)N2CCOCC2)cc1OC | – | 4.61 µM [rising, single point] | 0.00411 µM [rising, full curve, poor fit]
20 | CS(=O)(=O)N1CCN(c2nc(-c3ccccc3)cs2)CC1 | 28.8% | – | –
21 | COc1ccc(-n2c(SCC(N)=O)nc3sc4c(c3c2=O)CCC4)cc1 | -7.95% | – | 0.461 µM [falling, full curve, poor fit]
22 | CC(=O)Nc1ccc(SCC(=O)Nc2ccc(Cl)cn2)cc1 | 5.63% | – | –
23 | CC1(C)Cc2c(sc3c2c(=N)n(Cc2ccco2)c(=O)n3Cc2ccccc2)CO1 | -25.1% | – | 2.06 µM [rising, partial curve]
24 | COc1cc(/C=N/n2c(=S)[nH]nc(C)c2=O)cc([N+](=O)[O-])c1O | -10% | – | 4.11 µM [falling, partial curve, poor fit]
25 | Cc1[nH]c2ccccc2c1C(=O)CSc1ccc(F)cc1 | 4.59% | – | 0.082 µM [rising, full curve, poor fit]
26 | Cn1c(C(O)c2ccccc2F)nc(Cl)c1Cl (configuration not stated) | 0.28% | – | –
27 | N/C(Cc1cccs1)=N\OC(=O)COc1ccc(Br)cc1Cl | -26% | – | –
28 | Cc1ccccc1-c1nnc(SCC(=O)Nc2cccc(C)c2C)o1 | – | 6.51 µM [rising, partial curve, poor fit] | 0.517 µM [rising, single point]
29 | Cc1c(C#N)c(NC(=O)CCl)n(Cc2cccs2)c1C | -14.2% | – | 0.103 µM [falling, full curve, poor fit]
30 | CCCCCC(O)(c1ccc(OC)cc1)C(CN1CCOCC1)c1ccccc1 (configuration not stated) | 72.2% | 20.6 µM [rising, partial curve] | 29.1 µM [falling, single point]
31 | COC(=O)c1cn(C(=O)c2ccc(F)cc2)c2ccccc12 | -6.91% | – | 0.116 µM [falling, full curve, poor fit]

Only AC50 [1] and AC50 [2], for 2 of the compounds above:
Row,Compound,AC50 [1],AC50 [2]
29,Cc1c(C#N)c(NC(=O)CCl)n(Cc2cccs2)c1C,–,"0.103 µM [falling, full curve, poor fit]"
30,CCCCCC(O)(c1ccc(OC)cc1)C(CN1CCOCC1)c1ccccc1 (configuration not stated),"20.6 µM [rising, partial curve]","29.1 µM [falling, single point]"
